Source: PubChem BioAssay AID1259254 (NCATS, 2017)
The whole screen tested about 59,000 reagents; shown is an unselected part. About 1,550 of them (2.6%) were called active. 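G2 share is only a proxy for re-replication; each gene was hit by three separate siRNAs, and active genes were retested.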 Reagents against one gene are numbered here. Further read-outs or replicates are left out here. Not given: the amount of reagent.

Assay: 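Gene knock-downs that lead to re-replication, shown by excess G2 DNA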 (primary screen)
Cell system: human HCT116 colorectal cancer cells
Reagents: single siRNA against human genes
Timing: 3 days
Detection: 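Imaged Hoechst DNA stain sorts each cell into a cycle phase by DNA amount; per plate, G2 fraction set to 0% for non-targeting and 100% for GMNN siRNA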
Direction: G2 robust z-score: higher = more G2 cells, more excess DNA replication
Rule for the call: 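An siRNA counts as active if its G2 robust z-score lies at least 5 MADs above the screen median; here such calls match roughly 38% of GMNN control or more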

| Target gene | siRNA no. | G2 robust z-score | Call |
| --- | --- | --- | --- |
| ABHD12 (GeneID 26090) | 1 | 0.459 | inactive |
| ABHD12 (GeneID 26090) | 2 | 0.449 | inactive |
| ABHD12 (GeneID 26090) | 3 | 0.248 | inactive |
| GIMAP5 (GeneID 55340) | 1 | -0.447 | inactive |
| GIMAP5 (GeneID 55340) | 2 | 0.183 | inactive |
| GIMAP5 (GeneID 55340) | 3 | -0.304 | inactive |
| CNTROB (GeneID 116840) | 1 | 0.794 | inactive |
| CNTROB (GeneID 116840) | 2 | 1.57 | inactive |
| CNTROB (GeneID 116840) | 3 | -1.13 | inactive |
| MOB1A (GeneID 55233) | 1 | -0.0259 | inactive |
| MOB1A (GeneID 55233) | 2 | -0.563 | inactive |
| MOB1A (GeneID 55233) | 3 | -0.733 | inactive |
| USP35 (GeneID 57558) | 1 | 1.94 | inactive |
| USP35 (GeneID 57558) | 2 | -1.28 | inactive |
| USP35 (GeneID 57558) | 3 | -0.393 | inactive |
| LAPTM4A (GeneID 9741) | 1 | -0.725 | inactive |
| LAPTM4A (GeneID 9741) | 2 | 4.82 | inactive |
| LAPTM4A (GeneID 9741) | 3 | -0.322 | inactive |
| UGT8 (GeneID 7368) | 1 | -0.119 | inactive |
| UGT8 (GeneID 7368) | 2 | -0.665 | inactive |
| UGT8 (GeneID 7368) | 3 | 1.44 | inactive |
| SEC14L3 (GeneID 266629) | 1 | -0.561 | inactive |
| SEC14L3 (GeneID 266629) | 2 | -1.15 | inactive |
| SEC14L3 (GeneID 266629) | 3 | 0.974 | inactive |
| LINC01144 (GeneID 400752) | 1 | -0.304 | inactive |
| LINC01144 (GeneID 400752) | 2 | -0.76 | inactive |
| LINC01144 (GeneID 400752) | 3 | 1.11 | inactive |
| NAP1L5 (GeneID 266812) | 1 | -0.382 | inactive |
| NAP1L5 (GeneID 266812) | 2 | 0.578 | inactive |
| NAP1L5 (GeneID 266812) | 3 | -0.369 | inactive |
| ANAPC7 (GeneID 51434) | 1 | -0.0896 | inactive |
| ANAPC7 (GeneID 51434) | 2 | 5.24 | active |
| ANAPC7 (GeneID 51434) | 3 | -1.15 | inactive |
| CCAR1 (GeneID 55749) | 1 | -0.00182 | inactive |
| CCAR1 (GeneID 55749) | 2 | -1.13 | inactive |
| CCAR1 (GeneID 55749) | 3 | 0.151 | inactive |
| SLC39A4 (GeneID 55630) | 1 | 0.442 | inactive |
| SLC39A4 (GeneID 55630) | 2 | -0.707 | inactive |
| SLC39A4 (GeneID 55630) | 3 | -0.0481 | inactive |
| OSER1 (GeneID 51526) | 1 | 2.26 | inactive |
| OSER1 (GeneID 51526) | 2 | 0.597 | inactive |
| OSER1 (GeneID 51526) | 3 | 1.31 | inactive |
| OBI1 (GeneID 79596) | 1 | 0.299 | inactive |
| OBI1 (GeneID 79596) | 2 | -0.87 | inactive |
| OBI1 (GeneID 79596) | 3 | -0.136 | inactive |
| HSD17B11 (GeneID 51170) | 1 | 0.137 | inactive |
| HSD17B11 (GeneID 51170) | 2 | 0.338 | inactive |
| HSD17B11 (GeneID 51170) | 3 | -0.909 | inactive |
| AIFM1 (GeneID 9131) | 1 | 2.01 | inactive |
| AIFM1 (GeneID 9131) | 2 | 0.334 | inactive |
| AIFM1 (GeneID 9131) | 3 | 2.56 | inactive |
| GTPBP10 (GeneID 85865) | 1 | -0.028 | inactive |
| GTPBP10 (GeneID 85865) | 2 | 1.46 | inactive |
| GTPBP10 (GeneID 85865) | 3 | -0.518 | inactive |
| CCDC117 (GeneID 150275) | 1 | -0.421 | inactive |
| CCDC117 (GeneID 150275) | 2 | -0.759 | inactive |
| CCDC117 (GeneID 150275) | 3 | -0.128 | inactive |
| PGPEP1L (GeneID 145814) | 1 | -0.743 | inactive |
| PGPEP1L (GeneID 145814) | 2 | 1.69 | inactive |
| PGPEP1L (GeneID 145814) | 3 | -0.202 | inactive |
| ARG1 (GeneID 383) | 1 | 2.98 | inactive |
| ARG1 (GeneID 383) | 2 | 2.28 | inactive |
| ARG1 (GeneID 383) | 3 | 0.478 | inactive |
| CASTOR3P (GeneID 352954) | 1 | -0.859 | inactive |
| CASTOR3P (GeneID 352954) | 2 | -0.118 | inactive |
| CASTOR3P (GeneID 352954) | 3 | 0.425 | inactive |
| LILRA1 (GeneID 11024) | 1 | -1.63 | inactive |
| LILRA1 (GeneID 11024) | 2 | 0.296 | inactive |
| LILRA1 (GeneID 11024) | 3 | -0.889 | inactive |

10 entries already listed, arranged by “G2 robust z-score”, ascending.
| Target gene | siRNA no. | G2 robust z-score | Call |
| --- | --- | --- | --- |
| CNTROB (GeneID 116840) | 3 | -1.13 | inactive |
| MOB1A (GeneID 55233) | 2 | -0.563 | inactive |
| GIMAP5 (GeneID 55340) | 1 | -0.447 | inactive |
| GIMAP5 (GeneID 55340) | 3 | -0.304 | inactive |
| MOB1A (GeneID 55233) | 1 | -0.0259 | inactive |
| GIMAP5 (GeneID 55340) | 2 | 0.183 | inactive |
| ABHD12 (GeneID 26090) | 3 | 0.248 | inactive |
| ABHD12 (GeneID 26090) | 2 | 0.449 | inactive |
| CNTROB (GeneID 116840) | 1 | 0.794 | inactive |
| CNTROB (GeneID 116840) | 2 | 1.57 | inactive |
